# From the supplement of paper PMC8256030
# Where “and” joins values, the source holds several entries; their conditions need not be identical. Equal values may be shown once. The list shows a part of the results. This data set is noisy: repeats of one test often differ as much as different tests do.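 HEK293T cells were given each compound shortly before transfection with a reporter in which red mCherry is followed by the SARS-CoV-2 frameshift element and then GFP in the −1 frame, so GFP appears only after frameshifting.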
# Test system: SARS-CoV-2 -1 PRF reporter mCherry-FSE-GFP(-1)
# Assay: mCherry (red) intensity as percent of control; higher = higher upstream reporter expression
# Conditions: 10 µM; 24 h; HEK293T
row,SMILES,mCherry
1,CC(=O)[C@@]1(C)CC[C@H]2[C@@H]3C=C(C)C4=CC(=O)CC[C@]4(C)[C@H]3CC[C@@]21C [medrogestone],49.9%
2,C[C@@H]1CC[C@@]2(OC1)O[C@H]1C[C@H]3[C@@H]4CC[C@H]5C[C@@H](O[C@@H]6O[C@H](CO)[C@@H](O[C@@H]7O[C@H](CO)[C@@H](O)[C@H](O)[C@H]7O)[C@H](O)[C@H]6O)CC[C@]5(C)[C@H]4CC[C@]3(C)[C@H]1[C@@H]2C [tiqueside],99.9%
3,O=C1CN2Cc3c(ccc(Cl)c3Cl)N=C2N1,129%
4,O=C1[C@H]2CCCC[C@H]2C(=O)N1CCCCN1CCN(c2nsc3ccccc23)CC1 [perospirone],95.6%
5,CC1=Nc2ccc(Cl)cc2S(=O)(=O)N1 [Diazoxide],106%
6,COc1c2occc2cc2ccc(=O)oc12,111%
7,COC(=O)C1=C(C)NC(C)=C(C(=O)OC(C)(C)CN(C)CCC(c2ccccc2)c2ccccc2)C1c1cccc([N+](=O)[O-])c1 (centres undefined) [lercanidipine],112%
8,O=C1c2ccccc2S(=O)(=O)N1CCCCN1CCN(c2ncccn2)CC1 [ipsapirone],115%
9,O=C(O)c1ccc[n+]([O-])c1,119%
10,COc1cc2nccc(Oc3ccc(NC(=O)NC4CC4)c(Cl)c3)c2cc1C(N)=O [Lenvatinib],90.7%
11,NC[C@H](O)c1ccc(O)c(O)c1,74.7%
12,O=C(O)C1CC(O)CN1 (centres undefined) [Hydroxyproline],89.3%
13,COc1cc(CNC(=O)CCCC/C=C/C(C)C)ccc1O [capsaicin],96.1% and 76.5%
14,CN(C)CCOC(=O)COc1ccc(Cl)cc1 [meclofenoxate],90.2%

# Structural class, those above containing a COOH group.
row,SMILES,mCherry
9,O=C(O)c1ccc[n+]([O-])c1,119%
12,O=C(O)C1CC(O)CN1 (centres undefined) [Hydroxyproline],89.3%
